Data from patent publication US20250115926A1, “DEREGULATED DHS AND TYRA ENZYMES OF GRASSES ENABLE EFFICIENT PRODUCTION OF BOTH TYROSINE AND PHENYLALANINE” (Wisconsin Alumni Research Foundation, priority 2023, published 2025).
For some assays here: At least one compound was matched to its structure with a doubt left. Some of these results come from one statement about several compounds together.

How the values were obtained:
[1] = tested on: Nicotiana benthamiana leaves; experiment: Transient expression of DHS1b orthologs in Nicotiana benthamiana leaves, LCMS (FIG. 21); format: in vivo; settings: 72 hours post-infiltration, on average
Text: To determine whether the grass DHS1b gene encodes a deregulated DHS in other grass species besides Brachypodium distachyon, BdDHS1b orthologs from Oryza sativa (OsDHS1b) and Sorghum bicolor (SbDHS1b) were cloned into the Golden Gate plant expression vector pICH47822 under control of the RuBisCO small subunit 3B promoter from Arabidopsis thaliana.^52 A 3× human influenza hemagglutinin tag was fused in frame to the C-terminus of the DHS genes to confirm the production of heterologous DHS protein.
Agrobacterium tumefaciens (strain GV3101) clones transformed with the OsDHS1b and SbDHS1b plant expression constructs were infiltrated into the leaves of Nicotiana benthamiana side-by-side with Agrobacterium clones expressing BdDHS1a, BdDHS1b, and the fluorescent protein YPet (negative control). The levels of phenylalanine, tyrosine, tryptophan, and three of their biosynthetic intermediates (shikimate, prephenate, and arogenate) were determined at 72 hours post-infiltration by liquid chromatography coupled to mass spectrometry (LCMS). […] On average, expression of BdDHS1b or OsDHS1b increased phenylalanine, tyrosine, and shikimate levels by 5 to 20-times compared to the YPet negative control (FIG. 21), whereas prephenate and arogenate rose to ˜100-times the control (FIG. 21). […]

grass DHS enzymes = experiment: DHS activity: effector inhibition; format: biochemical; settings: 0.5 mM (FIGS. 4, 15, 17)
Procedure: As recent studies have shown that plant DHS enzymes are feedback-inhibited by multiple effector molecules^15, 16, we tested the effect of AAAs and another 14 related metabolites, including various intermediates of the shikimate pathway and the pathways downstream of AAAs, on Brachypodium DHS enzymes.
The DHS assay for UHPLC-MS quantification was set up using the same settings as described in the previous paragraph for the UV-based DHS assay, which guaranteed at least 10 minutes of reaction linearity. After a 10-minute incubation, 20 μL of the reactions (out of a total volume of 50 μL) were mixed into 80 μL of methanol, vortexed and transferred to vials for injection. Analysis of DAHP by UHPLC-MS was conducted using the same chromatographic settings as described for the UHPLC-MS analysis of soluble metabolites and compared with an authentic DAHP standard (Sta. Cruz biotechnology, cat. no. sc-216432).

Molecule	phenylalanine, tyrosine, and shikimate levels compared to the YPet negative control [1]	effect on grass DHS at 0.5 mM (grass DHS enzymes)
OsDHS1b: DHS1b enzyme of Oryza sativa, SEQ ID NO: 19	5 to 20 times	
O=C(O)C(=O)Cc1ccc(O)cc1 [4-hydroxyphenylpyruvate]		little effect
